Measurements as given in publication PMC5680816.
These are yes or no findings as the source states them, for the method shown. Some binding calls cover weakened binding; strength is not graded here. Tags and fused reporters may be left off the sequences shown.

Molecular target: T1, Gal4 BD-Dsn1 (yeast) (UniProt P40568)
T1 sequence: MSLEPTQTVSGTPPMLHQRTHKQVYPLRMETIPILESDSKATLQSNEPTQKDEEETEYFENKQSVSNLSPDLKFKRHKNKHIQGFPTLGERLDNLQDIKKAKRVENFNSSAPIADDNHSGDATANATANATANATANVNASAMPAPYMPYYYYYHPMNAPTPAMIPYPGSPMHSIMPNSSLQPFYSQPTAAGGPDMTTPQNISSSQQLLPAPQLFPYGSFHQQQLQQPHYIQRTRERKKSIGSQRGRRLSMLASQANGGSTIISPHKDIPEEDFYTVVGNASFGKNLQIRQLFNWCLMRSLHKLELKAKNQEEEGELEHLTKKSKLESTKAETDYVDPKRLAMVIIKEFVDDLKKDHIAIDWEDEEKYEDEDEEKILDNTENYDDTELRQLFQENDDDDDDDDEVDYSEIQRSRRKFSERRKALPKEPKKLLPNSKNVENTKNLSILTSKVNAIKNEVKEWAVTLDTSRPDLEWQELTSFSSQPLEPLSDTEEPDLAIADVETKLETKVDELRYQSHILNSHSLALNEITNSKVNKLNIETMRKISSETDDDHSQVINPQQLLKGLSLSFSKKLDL
Test: two-hybrid; Gal4 AD and Gal4 BD fusions in AH109 or its derivatives (ABC3Δ, ABC9Δ, single deletions); growth in selective medium (SD-Leu-Trp-His-Ade), 30 °C; DMSO, or nutlin in panels where growth was kept

binding: binds
B1: Gal4 AD-Csm1 (protein, UniProt P25651 1-190)
chain: MDPLTVYKNSVKQQIDSADLLVANLVNENFVLSEKLDTKATEIKQLQKQIDSLNAQVKELKTQTSQQAENSEVIKDLYEYLCNVRVHKSYEDDSGLWFDISQGTHSGGSSDDYSIMDYKLGFVKGQAQVTEVIYAPVLKQRSTEELYSLQSKLPEYLFETLSFPLSSLNQFYNKIAKSLNKKREKKDETE
